# Data reported in paper PMC5297731.
# Sequences of proteins named here, by UniProt entry; tags and fusion partners are left off.
# UniProt P61026: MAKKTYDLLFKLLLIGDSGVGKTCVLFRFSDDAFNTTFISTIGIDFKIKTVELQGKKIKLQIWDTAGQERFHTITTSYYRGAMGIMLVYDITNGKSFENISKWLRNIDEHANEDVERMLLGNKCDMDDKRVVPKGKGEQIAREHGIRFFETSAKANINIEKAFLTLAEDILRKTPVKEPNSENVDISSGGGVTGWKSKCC
# Results are given in words; binding and its absence hold for the method and conditions named. In cells and extracts the contact can be indirect. Some binding calls cover weakened binding; strength is not graded here. Where a sequence is shown, tags or fusion partners need not be part of it.
# Target: T1, Male Germ Cells Rab GTPase-Activating Protein (MGCRABGAP), FLAG-tagged (human) (UniProt Q8IYX1)
# T1 sequence: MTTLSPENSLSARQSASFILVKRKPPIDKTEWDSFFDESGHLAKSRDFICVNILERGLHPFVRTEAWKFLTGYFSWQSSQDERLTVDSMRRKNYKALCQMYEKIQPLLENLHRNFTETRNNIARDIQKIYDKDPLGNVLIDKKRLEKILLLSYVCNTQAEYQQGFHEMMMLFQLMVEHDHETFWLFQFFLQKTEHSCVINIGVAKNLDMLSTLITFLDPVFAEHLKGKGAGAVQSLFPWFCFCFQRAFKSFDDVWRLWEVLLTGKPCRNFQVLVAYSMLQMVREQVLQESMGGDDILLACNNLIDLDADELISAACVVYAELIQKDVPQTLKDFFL
# Assay: co-IP; lysates of NT2D1 cells transfected with pFLAG-MGCRABGAP (4 mg protein in 1 mL, precleared with protein A/G beads) incubated overnight at 4 °C with anti-FLAG antibody or control IgG; washed twice with PBS; immunoblot with anti-RAB10 antibody
substance,measurement,value
RAB10 (from UniProt P61026 1-200),binding,binds
